Data from publication doi:10.1101/2020.03.01.972125.
No constants are given. Whether binding was seen depends on the method and setting. Binding seen in cells or lysates may run through a third protein. Some results given as binding are weak or reduced against the parent protein; the word gives no strength.

Chains of the proteins cited; added tags and fusions are not shown. Residues count along the entry.
UniProt Q10589, residues 1-161: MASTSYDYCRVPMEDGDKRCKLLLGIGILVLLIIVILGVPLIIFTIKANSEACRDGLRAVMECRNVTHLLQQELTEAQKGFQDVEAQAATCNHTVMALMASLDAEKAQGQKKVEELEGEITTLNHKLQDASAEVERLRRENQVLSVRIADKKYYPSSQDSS
UniProt P27449: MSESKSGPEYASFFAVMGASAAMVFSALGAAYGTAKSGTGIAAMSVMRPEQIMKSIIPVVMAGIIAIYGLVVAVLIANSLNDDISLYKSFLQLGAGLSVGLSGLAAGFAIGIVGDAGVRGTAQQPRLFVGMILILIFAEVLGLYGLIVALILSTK

What was measured:
[1] = target: N-terminally HA-tagged human tetherin (human) (UniProt Q10589); test: co-IP
[2] = target: C-terminally FLAG-tagged ATP6V0C (UniProt P27449); test: co-IP

## C-terminally FLAG-tagged ATP6V0C (from UniProt P27449 1-155)
[1]
  binding: binds

## N-terminally HA-tagged human tetherin (from UniProt Q10589 1-161)
[2]
  binding: binds
